Data on two substances can be found in patent publication US5767085A (Novo Nordisk A/S, priority 1993, dated 1998).

The nature of series [1]: general procedure: Fmoc solid-phase peptide synthesis; 4-((2',4'-dimethoxyphenyl)-(Fmoc-amino)methyl)-phenoxy resin (Rink, Novabiochem) 0.39 mmol/g; 4-methyl BHA resin 0.72 mm; HBTU in NMP (Fmoc); preformed symmetrical anhydrides in DMF (Boc). To be noted: whole synthesis, scale of the general procedure 0.22 mmol (Fmoc), 0.5 mmol (Boc).
A short description of series [2]: Fmoc solid-phase peptide synthesis; Rink amide resin; HBTU in NMP (Fmoc); preformed symmetrical anhydrides in DMF (Boc). To be noted: whole synthesis, scale 0.22 mmol, TFA salt.

[ ]: non-standard residue; d: D form. d2Nal = N[C@H](Cc1ccc2ccccc2c1)C(=O)O

Turning to “(2S)-(H-Ala-His-D-2Nal-D-Phe-NH)-6-aminohexanol”, the difficulty met result in series [1] is “The purification had to be repeated in order to obtain a sufficiently pure product”.

As for H-AH[d2Nal][dW]K-NH2, in series [2], the isolated mass was found to be 19.0 mg.
